Results taken from article PMC11352099 (RSC Medicinal Chemistry, 2024).

Experiment: Caco-2 permeability assay
Conditions: human
Method: 3.5. Caco-2 permeability assay
Transepithelial bi-directional transport of compounds (10 µM, pH 7.4/7.4) was tested on 21-day differentiated Caco-2 monolayers. Briefly, the cells were seeded at a density of 67 ,500 cells per 96-well plate insert (Millicell®, Merck KGaA, Darmstadt, Germany). They were left to differentiate for 21 days with medium exchange every 2–3 days. Prior to the experiment, the medium from both apical and basolateral well was exchanged for HBSS buffer (containing 10 mM HEPES and 25 mM glucose) and left to equilibrate for 30 min. […] After that, samples were collected from both apical inserts and basolateral wells and analyzed using LC -MS/MS (SCIEX Triple Quad™ 7500 QTRAP® Ready). […]
The apparent permeability coefficient (Papp) was calculated from t he following equation: Papp = (dQ / dt) / C0 * A, where dQ/dt is the rate of absorption of the drug across the cells, C0 is the donor compartment concentration at time zero, and A is the area of the monolayer. Efflux ratio was expressed as (Papp B -A) / (Papp A-B). Recovery (%) was determined as (total compound mass i n donor and receiver compartments at the end of the incubation / initial compound mass in the donor compartment) x 100. […]

CC(C)NCC(O)COc1ccc(CC(N)=O)cc1 (centres unmarked) [Atenolol, reference compound] showed a Papp A→B at 2 h, 10 µM (Caco-2) of 0.3 ± 0.1 ×10⁻⁶ cm/s and a recovery at 2 h, 10 µM (Caco-2, Recovery (%) A-B, Table S2, A to B transport) of 105%.
